Measured values taken from US12716903B2, “Microfluidic chip-based, universal coagulation assay” (Perosphere Technologies Inc., priority 2014, dated 2026).
At least one compound was matched to its structure with a doubt left.

Tested on: blood
Assay: Blood clotting time on microfluidic closed device chip, by IR light transmission and impedance
Set-up: species or system patient
Details: blood mixed with buffer solution containing edoxaban at 300 ng/mL
Description: For detection of clotting through measurement of impedances, a sample is loaded into the chip, the chip is inserted into its reader, and the pogo pins connecting to the internal impedance electrodes connected via Kelvin clip leads to a QuadTech 1920 LCR meter. The magnitude and the phase of the complex impedance of the blood sample were recorded at 15 second intervals. […] The peaks or plateaus indicated a measure for the clotting time.
For optical clot detection, IR LED and photodiode are inserted into their reader parts as described above. A blood sample is pipetted into the chip and the chip placed into the reader. The sample is continuously illuminated with IR light at 1,300 nm. At time intervals of typically 100 ms, the voltage drop across a 1 MOhm resistor caused by the photocurrent of the photodiode was recorded. Voltages typically measured several volts. Clotting of the sample caused the transmitted light and the photocurrent to vary over time. Characteristic peaks of the transmitted light curve indicated a measure for the clotting time.
Blood was harvested from a patient using commercially available lancing devices. 10 μL of blood were obtained and pipetted into an Eppendorf tube. […]
Edoxaban is a commercially available anticoagulant. […] The chip was inserted into its reader, and both IR light and impedance measurements were immediately recorded at room temperature (approximately 27° C.). […]

CN1CCc2nc(C(=O)N[C@@H]3C[C@@H](C(=O)N(C)C)CC[C@@H]3NC(=O)C(=O)Nc3ccc(Cl)cn3)sc2C1 [edoxaban]
characteristic local minimum of the curves (room temperature): around 12 minutes
characteristic peak indicative of the sample clotting time (IR and impedance curves, room temperature (approximately 27° C.), no heating): approximately 4 minutes
